Laboratory results taken from patent US20250270283A1.
Results are given in words; binding and its absence hold for the method and conditions named. Some results given as binding are weak or reduced against the parent protein; the word gives no strength.

Experiments:
[1] = target: KIR2DL2 (killer-cell immunoglobulin-like receptor), soluble recombinant; test: SPR, His-tagged KIR immobilised on Ni-NTA chip, HLA protein as analyte, 25 °C
[2] = target: KIR2DL2 (killer-cell immunoglobulin-like receptor), soluble recombinant; test: SPR, His-tagged KIR2DL2 immobilised on a Ni-NTA chip, WTC1 flowed over as analyte, 25 C
[3] = target: KIR2DL2 (killer-cell immunoglobulin-like receptor), soluble recombinant; test: SPR, His-tagged KIR immobilised on Ni-NTA chip, HLA protein as analyte, 25 °C; relative response (FIG. 24); WTC1 is the reference with the higher response

Substance | binding [1] | binding [2] | binding [3]
SYNC44-L2 (from UniProt P10321 26-301) (peptide-MHC) | binds |  | 
WTC1 (RL9/HLA-C*07:02/B2M) (from UniProt P10321 25-302; P61769 21-119) (peptide-MHC) |  | binds | binds
